In this series the test system is Ah receptor/ARNT heterodimer (TCDD-transformed, liver cytosol) (Cavia porcellus (guinea pig)). Put plainly: binding assay. Conditions: Example 2, 6 and 7; protein in an extract; label: 5'-biotin on SEQ:2 strand.

Chains of the proteins cited; added tags and fusions are not shown. A line that says so, or that is headed by a name, gives the form on record, which may keep a tag or linker.
Ah receptor/ARNT heterodimer (TCDD-transformed, liver cytosol) (Cavia porcellus (guinea pig)), one chain, as listed by the source, chain 2 of 2: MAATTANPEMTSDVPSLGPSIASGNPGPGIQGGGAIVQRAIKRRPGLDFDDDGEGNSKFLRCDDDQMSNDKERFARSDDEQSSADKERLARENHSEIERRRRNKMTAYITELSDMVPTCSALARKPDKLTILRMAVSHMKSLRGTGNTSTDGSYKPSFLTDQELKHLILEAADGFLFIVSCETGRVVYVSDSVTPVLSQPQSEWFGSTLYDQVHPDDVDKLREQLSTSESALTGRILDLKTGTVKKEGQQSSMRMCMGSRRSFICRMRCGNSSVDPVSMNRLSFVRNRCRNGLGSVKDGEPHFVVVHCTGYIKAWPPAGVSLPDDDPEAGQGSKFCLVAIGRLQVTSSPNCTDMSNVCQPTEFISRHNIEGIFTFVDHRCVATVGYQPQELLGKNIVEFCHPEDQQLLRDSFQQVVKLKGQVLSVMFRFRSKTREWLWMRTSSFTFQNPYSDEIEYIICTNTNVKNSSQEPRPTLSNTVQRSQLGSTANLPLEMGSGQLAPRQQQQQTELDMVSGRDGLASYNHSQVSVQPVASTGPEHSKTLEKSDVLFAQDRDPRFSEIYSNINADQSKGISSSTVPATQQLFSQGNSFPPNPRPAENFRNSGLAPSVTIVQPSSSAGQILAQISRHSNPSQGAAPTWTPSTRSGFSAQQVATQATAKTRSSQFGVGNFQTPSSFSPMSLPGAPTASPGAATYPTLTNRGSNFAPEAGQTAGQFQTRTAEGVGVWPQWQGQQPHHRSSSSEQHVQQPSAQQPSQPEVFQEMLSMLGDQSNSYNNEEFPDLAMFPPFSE
Ah receptor/ARNT heterodimer (TCDD-transformed, liver cytosol) (Cavia porcellus (guinea pig)), one chain, as listed by the source, chain 1 of 2: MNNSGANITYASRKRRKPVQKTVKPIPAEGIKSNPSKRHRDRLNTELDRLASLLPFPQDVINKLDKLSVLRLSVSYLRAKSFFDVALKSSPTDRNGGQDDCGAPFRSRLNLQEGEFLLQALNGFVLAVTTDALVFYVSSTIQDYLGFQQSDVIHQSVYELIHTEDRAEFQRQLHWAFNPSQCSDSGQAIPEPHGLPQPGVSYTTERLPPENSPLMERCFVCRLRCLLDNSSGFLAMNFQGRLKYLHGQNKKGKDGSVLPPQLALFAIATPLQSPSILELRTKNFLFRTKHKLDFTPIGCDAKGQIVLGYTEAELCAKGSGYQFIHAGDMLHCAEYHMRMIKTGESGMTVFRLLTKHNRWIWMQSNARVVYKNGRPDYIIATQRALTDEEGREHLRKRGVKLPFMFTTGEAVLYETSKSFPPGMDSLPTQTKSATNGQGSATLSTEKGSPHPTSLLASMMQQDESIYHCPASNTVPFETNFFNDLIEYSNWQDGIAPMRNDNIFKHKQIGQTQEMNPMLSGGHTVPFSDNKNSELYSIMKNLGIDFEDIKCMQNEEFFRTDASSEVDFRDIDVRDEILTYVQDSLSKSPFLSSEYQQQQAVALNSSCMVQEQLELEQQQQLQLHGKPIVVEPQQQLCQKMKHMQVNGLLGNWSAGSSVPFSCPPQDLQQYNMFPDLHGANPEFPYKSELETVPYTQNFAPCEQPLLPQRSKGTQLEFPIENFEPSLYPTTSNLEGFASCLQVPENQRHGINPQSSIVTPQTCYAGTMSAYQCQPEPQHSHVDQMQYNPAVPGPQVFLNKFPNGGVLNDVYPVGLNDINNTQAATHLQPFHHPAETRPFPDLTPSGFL

Where cells or extracts were used, other partners may take part.

With “GATCCGGAGTTGCGTGAGAAGAGCCA (double strand) [DRE (DRE-D / biotin-ERD duplex)]”, the binding result is listed as “binds”.

Source of the values: patent publication US5833994.
